# According to PubChem BioAssay AID1347076 (National Center for Advancing Translational Sciences (NCATS), 2019):
# The whole screen tested about 400,000 compounds, of which about 13,000 (3.2%) were called active. Inconclusive results, whose numbers are uncertain, are shown with a selection of clear calls. Calls follow the shape of the dose curve; as a rule, active = well fitted cell-killing curve with a large enough effect; inconclusive = small, poorly fitted or top-dose-only effect, or effect the other way; inactive = flat fitted curve, though single readings scatter. Potencies beside an inconclusive call are fits to weak or partial responses and may not hold up.
# Assay: qHTS assay for MDR1-selective chemotherapeutics: Primary screen using the drug-selected MDR subline cells KB-V1; also: nearly all actives have a fitted effect of over 60% in size
# Settings: KB-V1 MDR cells viability, CellTiter-Glo, 72 h; activity change, negative = cytotoxicity: at 46.1 µM (top of the series)
# In short: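 In this primary screen, KB-V1 cells overexpressing P-gp are incubated with library compounds (lowest to highest concentration) for 72 h at 37 degrees C before a luminescent ATP viability read.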
# % is scaled to controls: 0 for no effect and ±100 for the full control effect; potency is read from the fitted curve at half-maximal effect.
SMILES,Potency,"activity change, negative = cytotoxicity"
O=C(Nc1ccc2c(c1)N(S(=O)(=O)c1cccs1)CCC2)c1c(F)cccc1Cl,"inconclusive: 9.2 µM [cytotoxic, partial curve]",
Cc1ccc(-n2ncc3c(=O)[nH]c(SCC(=O)N4CCOCC4)nc32)cc1,,inactive: -3.62%
CCCc1cc(=O)oc2cc(OC(C)C(=O)NC3CC(C)(C)NC(C)(C)C3)ccc12 (centres undefined),"inconclusive: 10.3 µM [rising, partial curve, poor fit]",
COc1ccc(C)cc1NC(=O)CSc1nnnn1Cc1ccccc1,,inactive: -10.4%
Cn1cccc1/C=N/NC(=O)c1cc(-c2cccs2)nc2ccccc12,active: 6.51 µM,
COc1ccccc1C(=O)NC(CCSC)C(=O)OCC(=O)N1CCN(S(=O)(=O)c2ccc(C)cc2)CC1 (centres undefined),"inconclusive: 16.4 µM [cytotoxic, single point]",
O=C(/C=C/c1ccc(Cl)cc1)c1cccnc1,"inconclusive: 29.1 µM [cytotoxic, single point]",
COc1ccc(NC(=O)CN(C)C(=O)c2cc(-c3ccco3)nc3ccccc23)cc1,"inconclusive: 6.51 µM [cytotoxic, partial curve]",
O=C(Nc1ccc(-c2cn3c(n2)SCC3)cc1)c1ccc2c(c1)OCO2,"inconclusive: 16.4 µM [cytotoxic, partial curve]",
COc1cc(OC)c2ccc(=O)oc2c1C(CCN1CCN(c2ccccc2)CC1)c1ccc2c(c1)OCO2 (centres undefined),"inconclusive: 3.66 µM [rising, full curve, poor fit]",
COC(=O)[C@H](Cc1ccccc1)NC(=O)NC(C)CCc1ccccc1 (some centres undefined),"inconclusive: 14.6 µM [rising, partial curve]",
CCN(CC)CCCN(Cc1cc2cc3c(cc2[nH]c1=O)OCO3)C(=S)Nc1ccccc1OC,"inconclusive: 14.6 µM [rising, partial curve, poor fit]",
CC(=O)NCCC1CCN(C(=O)C2CCC(=O)N(C3CCCC3)C2)CC1 (centres undefined),"inconclusive: 25.9 µM [rising, single point]",
O=C(O)c1ccc(N2CC3CC(C2)c2cccc(=O)n2C3)c(NS(=O)(=O)c2cccc(C(F)(F)F)c2)c1 (centres undefined),"inconclusive: 25.9 µM [rising, single point]",
COCCCn1c(SCC(=O)Nc2ccc(C)cc2)nc2ccccc2c1=O,"inconclusive: 5.17 µM [cytotoxic, full curve]",
C=C1C=C(C(F)F)n2ncc(C(=O)NCc3ccc(F)cc3)c2N1,,inactive: -0.264%
Cc1cc(Nc2cccc(Cl)c2)nc2ccc(NC(=O)COc3ccc(Cl)cc3)cc12,,inactive: 4.58%
COc1ccc(C(=O)N(C)CCCC2CCCC2)cc1OC1CCN(C(C)C)CC1,"inconclusive: 25.9 µM [cytotoxic, single point]",
CCCOC(=O)c1cccc(NC(=O)COc2ccc([N+](=O)[O-])cc2)c1,"inconclusive: 14.6 µM [cytotoxic, partial curve]",
CC1c2ccccc2N(NC(=O)Cc2ccccc2)C1C (centres undefined),,inactive: 15%
Cc1ccc2c(c1)CCCN2C(=O)c1ccco1,"inconclusive: 29.1 µM [cytotoxic, single point]",
COc1ccc(NS(=O)(=O)c2cccc(NC(=O)CCC(=O)c3ccc(Cl)cc3)c2)cc1,active: 18.4 µM,

SMILES,Potency,"activity change, negative = cytotoxicity"
CCc1cccc2c(N=O)c(O)[nH]c12,active: 16.4 µM,
O=C(c1ccco1)N1CCN(S(=O)(=O)c2ccc(S(=O)(=O)NC3CC3)cc2)CC1,,inactive: -2.2%
O=C(NCc1ccncc1)c1ccc(Cl)c(S(=O)(=O)N2CCCCC2)c1,"inconclusive: 20.6 µM [cytotoxic, single point]",
CC(C)c1ccc(NC(=O)c2cc3c(=O)[nH]c4ccccc4c3n2C)cc1,"inconclusive: 18.4 µM [rising, single point]",
O=C(NC(=S)Nc1ccccc1[N+](=O)[O-])c1ccccc1Cl,"inconclusive: 29.1 µM [cytotoxic, single point]",
CC1(C)CC(=O)C=C(c2ccccc2-c2ccc3cc[nH]c3c2)C1=O,"inconclusive: 11.6 µM [cytotoxic, partial curve, poor fit]",
CNC(=S)N(Cc1cccs1)Cc1cc2ccc(OC)cc2[nH]c1=O,"inconclusive: 13 µM [cytotoxic, partial curve]",
CCN(CC)CCn1c(NCc2ccc(C)o2)nc2ccccc21,"inconclusive: 3.66 µM [cytotoxic, full curve]",
Cc1cc2nc(-c3ccc(SCC(=O)Nc4ccc(S(=O)(=O)N5CCCC5)cc4)nc3)[nH]c2cc1C,,inactive: -13.2%
COc1ccc(Nc2cc(C)nc(N3CCN(C(=O)c4ccc5c(c4)OCO5)CC3)n2)cc1,,inactive: 14.5%
CC(C)(C)C(=O)OCc1nc(-c2ccc(Cl)cc2)cs1,"inconclusive: 11.6 µM [rising, partial curve, poor fit]",
CN(CC(=O)Nc1ccc(Cl)cc1)C(=O)C1CCCC1,,inactive: -13.4%
COc1cccc(CSC(C(=O)O)c2ccccc2)c1 (centres undefined),,inactive: 3.08%
CCN(CC)c1ccc(S(=O)(=O)N2CCCCC2)cc1NC(=O)C1=COCCO1,"inconclusive: 16.4 µM [cytotoxic, partial curve, poor fit]",
Oc1sc(C=Nc2ccccc2)c2ccccc12,"inconclusive: 29.1 µM [cytotoxic, single point]",
COc1ccccc1OCC(=O)c1[nH]c(C)c(C(C)=O)c1C,,inactive: -30.8%
O=C(CN1C(=O)c2cccnc2Sc2ccccc21)Nc1cc(F)ccc1F,,inactive: -4.67%
Oc1ccc(/C=N/N=C/c2ccc(O)cc2)cc1,"inconclusive: 18.4 µM [rising, single point]",
CCN1CCc2c(sc(NC(=O)c3ccc(S(=O)(=O)N(CC)c4ccccc4)cc3)c2C(N)=O)C1,"inconclusive: 18.4 µM [cytotoxic, partial curve]",
Cc1ccc(-n2nc(C)c3c(C(=O)NCCc4ccc(S(N)(=O)=O)cc4)cc(C)nc32)cc1,"inconclusive: 20.6 µM [rising, single point]",
CCOC(=O)c1nn(-c2ccccc2)c(C(=O)OCC)c1N,"inconclusive: 29.1 µM [cytotoxic, single point]",
Cc1ccccc1-c1cnc(C(O)c2c(C)cccc2C)[nH]1 (centres undefined),,inactive: 4.03%

# 2 entries from above, as tab-separated lines:
SMILES	Potency	activity change, negative = cytotoxicity
CC1c2ccccc2N(NC(=O)Cc2ccccc2)C1C (centres undefined)		inactive: 15%
Cc1ccc2c(c1)CCCN2C(=O)c1ccco1	inconclusive: 29.1 µM [cytotoxic, single point]	
